# According to patent publication US8710088B2, “Pharmaceutical and diagnostic compositions for use in the treatment and diagnosis of neurodegenerative diseases or amyloid diseases” (Max-Delbruck-Centrum fur Molekulare Medizin, priority 2004, dated 2014):
# At least one compound was matched to its structure with a doubt left.
# Tests used:
# huntingtin = biological target: T1, huntingtin (Homo sapiens, UniProt P42858, INS38QQQQQQQQQQQQQQQQQQQQQQQQQQQQQQ); test: cell culture model of Huntington's chorea: COS1 cells transfected with pTL1-CAG51, membrane filter test; type: cell-based; conditions: 40-44 h, membrane filter method
# T1 construct: expressed in transfected cells; host or cells: COS1 cells, transient transfection
# Description: The compounds were then tested in several cell culture models of polyglutamine diseases, inter alia Huntington's chorea. For this purpose, COS1 cells were transiently transfected with the plasmid pTL1-CAG51 already described above (Sittler, A., Walter, S., Wedemeyer, N., Hasenbank, R., Scherzinger, E., Eickhoff, H., Bates, G. P., Lehrach, H. and Wanker, E. E. (1998) Mol Cell 2, 427-36) and cultivated for 44 h in the presence of solvents or the chemical agents. Subsequently, the amount of aggregate was determined with the help of the membrane filter test as described by Heiser et al. (2002). […] The latter could be deduced from the total amount of protein in the cell lysate (FIG. 2B) which was determined with the help of cell extracts.
# 7-Amino-8-(2,4-dihydroxy-6-methyl-phenyl)-1,9-dimethyl-phenoxazine-3-one was then tested in a cell culture model of Huntington's chorea. […] Subsequently, the amount of aggregate was determined with the help of the membrane filter test as described by Heiser et al. (2002). […] The latter could be deduced from the total amount of protein (FIG. 2B) which was determined with the help of cell extracts.
# [1] = tested on: ataxin-3 deletion construct (aa 221-360) with 71 glutamines; test: ataxin-3 aggregation in COS-1 cells, filtration method; type: cell-based; conditions: 40 h, membrane filter method
# Description: For some compounds, a positive effect could be observed in another cell culture model of Huntington's chorea and a cell culture model of spinocerebellar ataxia (type 3). A test system based on the aggregation of an N-terminal ataxin-3 deletion construct (aa 221-360) with 71 glutamines in COS-1 cells was developed to isolate substances inhibiting the ataxin-3 aggregation. The cells were transiently transfected with the ataxin-3 expression construct and incubated in plates with 96 perforations with the added substance at 37° C. in an incubator. After 40 h the cells were harvested and lysated. The lysates were denatured in the presence of 2% SDS and analyzed using the filtration method.
# [2] = biological target: T2, mutant huntingtin (GST fusion protein GST-HDQ51) (Homo sapiens, UniProt P42858, INS38QQQQQQQQQQQQQQQQQQQQQQQQQQQQQQ); test: in vitro aggregation of mutant huntingtin, membrane filter test; type: biochemical; conditions: membrane filter method
# T2 construct: GST (N)
# Description: As in the tests described by Heiser et al. (2002), the protein was used for aggregation tests to which either only solvent or solvent and the chemical agent in question was added. Aliquots of these batches were examined by means of the membrane filter test and electron microscopy.
# As in the tests described by Heiser et al. (2002), the protein was used for aggregation tests to which either only solvent or solvent and 7-amino-8-(2,4-dihydroxy-6-methyl-phenyl)-1,9-dimethyl-phenoxazine-3-one was added. Aliquots of these batches were examined by means of the membrane filter test (FIG. 1B) and electron microscopy (FIGS. 1E and 1F).
# [3] = tested on: huntingtin-Exon-1 with 103 glutamines (Htt103Q-EGFP); test: stably transfected PC12 cell line with inducible Htt103Q-EGFP, membrane filter test; type: cell-based; conditions: muristerone induced, 44 h, membrane filter method
# Description: The compounds were additionally tested in a stably transfected PC12 cell line. This cell line was transfected with an ecdysone-inducible plasmid whose N-terminal codes for huntingtin-Exon-1 marked with GFP with 103 glutamines (Htt103Q-EGFP). The Htt103Q-EGFP expression was induced with muristerone and the cells were subsequently cultivated for 44 h in the presence of solvents or the chemical agents. Subsequently, the amount of aggregate was determined with the help of the membrane filter test as described by Heiser et al. (2002). Furthermore, the amount of aggregate was determined with the help of a fluorescence measurement (data not shown). […] The latter could be deduced from the total amount of protein in the cell lysate (FIG. 2B) which was determined with the help of cell extracts.
smiles,measurement,setting,value
"Cc1c(C)n2c3c(cc(F)cc13)C(=O)CC2 [8-fluoro-1,2-dimethyl-4,5-dihydro-pyrrolo[3,2,1-ij]quinoline-6-one]",Inhibition of the aggregation of huntingtin in mammalian cells,huntingtin,Inhibition of the aggregation
same,Inhibition of the aggregation of ataxin-3 in mammalian cells,[1],Inhibition of the aggregation
Cc1cc(O)c2c(O)c3c(O)cccc3cc2c1 [chrysarobin],Inhibition of the aggregation of huntingtin (Exon-1) (SDS-insoluble aggregates),[2],Inhibition of the aggregation
"CCOC(=O)C(CC(C)C)NC(=O)Nc1nc(-c2ccccc2)ns1 (centres unmarked) [4-Methyl-2-[3-(3-phenyl-[1,2,4]thiadiazole-5-yl)-ureido]-pentanoic acid ethyl ester]",Inhibition of the aggregation of huntingtin in mammalian cells,huntingtin,Inhibition of the aggregation
"CC(=O)Nc1nc2c(ccc3[nH]c(=O)c(C#N)cc32)s1 [N-(-Cyano-7-oxo-6,7-dihydro-thiazolo[4,5-f]quinoline-2-yl)-acetamide]",Inhibition of the aggregation of huntingtin (Exon-1) in mammalian cells,[3],Inhibition of the aggregation
